This is an account of results in publication PMC10562466.

Results are given in words; binding and its absence hold for the method and conditions named. Binding can be weak; no strength is given. For part of these data: Sequences can lack the tags named with a protein. For part of these data: Binding seen in cells or lysates may run through a third protein.

Assay [1] deals with AKT, endogenous (human (endogenous in T24 and UMUC3)). In words: co-IP; endogenous proteins in T24 and UMUC3 cell lysate; antibody-conjugated magnetic beads, overnight at 4 °C; also after CDCA8 knock-down or PTEN knock-down.
For assay [2], the target named is AKT, recombinant protein of the GST-pulldown assay. The assay is described as follows: pull-down; GST-fused protein on glutathione-Sepharose beads incubated with recombinant His-tagged protein at 4 °C for 2 h; immunoblotting; both purified. (A western blot detects proteins with antibodies after separation by electrophoresis.)
The target in a further assay is AKT, HA-tagged. The assay is described as follows: co-IP; exogenous tagged proteins (3xFlag-CDCA8 constructs, HA-AKT, GFP-PTEN) overexpressed in 293 T cells; antibody-conjugated magnetic beads, overnight at 4 °C.

B1: cell cycle division-related gene 8 (CDCA8) protein, endogenous (protein, UniProt Q53HL2 1-280)
chain: MAPRKGSSRVAKTNSLRRRKLASFLKDFDREVEIRIKQIESDRQNLLKEVDNLYNIEILRLPKALREMNWLDYFALGGNKQALEEAATADLDITEINKLTAEAIQTPLKSAKTRKVIQVDEMIVEEEEEEENERKNLQTARVKRCPPSKKRTQSIQGKGKGKRSSRANTVTPAVGRLEVSMVKPTPGLTPRFDSRVFKTPGLRTPAAGERIYNISGNGSPLADSKEIFLTVPVGGGESLRLLASDLQRHSIAQLDPEALGNIKKLSNRLAQICSSIRTHK
With B1, in assay [1], the binding entry is reported as “binds”.

B2: CDCA8, recombinant protein of the GST-pulldown assay (protein, UniProt Q53HL2 1-280)
chain: B1 chain
For B2, the binding result in assay [2] was “binds”.

B3: CDCA8 full-length (CDCA8-FL), 3x Flag-tagged (protein, UniProt Q53HL2 1-280)
chain: B1 chain
Consider B3, for which the binding entry in the assay with AKT, HA-tagged is listed as “binds”.
